Assay results reported in the supplement of paper PMC10849652.
The other results are listed elsewhere or left out.

Amino acid sequences for entries named in this document (tags omitted). A change or cut given only in a name is not applied to a line headed by its entry.
UniProt Q07812, whole entry, looked up: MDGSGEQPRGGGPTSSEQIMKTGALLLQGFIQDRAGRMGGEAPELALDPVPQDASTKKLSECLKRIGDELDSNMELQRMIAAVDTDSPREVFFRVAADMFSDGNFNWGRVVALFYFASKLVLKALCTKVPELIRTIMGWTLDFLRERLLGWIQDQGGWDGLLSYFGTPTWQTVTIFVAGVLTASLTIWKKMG
UniProt Q9Y679: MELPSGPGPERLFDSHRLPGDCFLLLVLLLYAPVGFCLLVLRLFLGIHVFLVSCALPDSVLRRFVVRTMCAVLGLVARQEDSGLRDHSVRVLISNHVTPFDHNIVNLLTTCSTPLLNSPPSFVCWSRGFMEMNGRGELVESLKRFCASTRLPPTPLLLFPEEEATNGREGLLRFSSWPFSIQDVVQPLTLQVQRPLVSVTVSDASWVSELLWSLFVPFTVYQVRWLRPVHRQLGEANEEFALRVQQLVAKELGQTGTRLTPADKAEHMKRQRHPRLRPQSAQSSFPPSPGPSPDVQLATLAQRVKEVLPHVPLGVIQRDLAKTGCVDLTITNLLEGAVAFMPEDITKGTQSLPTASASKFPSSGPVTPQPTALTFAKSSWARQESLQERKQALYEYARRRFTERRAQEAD
UniProt Q00973: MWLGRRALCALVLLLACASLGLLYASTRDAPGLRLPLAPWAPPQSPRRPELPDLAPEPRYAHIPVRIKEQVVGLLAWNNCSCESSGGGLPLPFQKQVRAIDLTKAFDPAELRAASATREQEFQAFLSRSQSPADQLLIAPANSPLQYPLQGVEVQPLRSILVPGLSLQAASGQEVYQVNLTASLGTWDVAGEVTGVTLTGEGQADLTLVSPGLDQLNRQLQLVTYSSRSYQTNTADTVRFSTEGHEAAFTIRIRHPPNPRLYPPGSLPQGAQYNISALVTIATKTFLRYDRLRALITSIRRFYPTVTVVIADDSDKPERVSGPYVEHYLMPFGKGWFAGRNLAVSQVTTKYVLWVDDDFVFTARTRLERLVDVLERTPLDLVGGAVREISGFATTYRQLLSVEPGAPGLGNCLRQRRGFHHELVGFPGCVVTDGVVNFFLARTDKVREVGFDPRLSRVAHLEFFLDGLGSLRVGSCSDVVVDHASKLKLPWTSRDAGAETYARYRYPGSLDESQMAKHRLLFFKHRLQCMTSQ
UniProt Q12981: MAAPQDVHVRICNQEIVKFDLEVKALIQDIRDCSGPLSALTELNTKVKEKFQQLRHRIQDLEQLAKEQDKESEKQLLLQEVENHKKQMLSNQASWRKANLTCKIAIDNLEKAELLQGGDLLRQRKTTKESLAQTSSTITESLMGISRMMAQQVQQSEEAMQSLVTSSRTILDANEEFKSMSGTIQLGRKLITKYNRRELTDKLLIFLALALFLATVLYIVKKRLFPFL
UniProt Q5VW32: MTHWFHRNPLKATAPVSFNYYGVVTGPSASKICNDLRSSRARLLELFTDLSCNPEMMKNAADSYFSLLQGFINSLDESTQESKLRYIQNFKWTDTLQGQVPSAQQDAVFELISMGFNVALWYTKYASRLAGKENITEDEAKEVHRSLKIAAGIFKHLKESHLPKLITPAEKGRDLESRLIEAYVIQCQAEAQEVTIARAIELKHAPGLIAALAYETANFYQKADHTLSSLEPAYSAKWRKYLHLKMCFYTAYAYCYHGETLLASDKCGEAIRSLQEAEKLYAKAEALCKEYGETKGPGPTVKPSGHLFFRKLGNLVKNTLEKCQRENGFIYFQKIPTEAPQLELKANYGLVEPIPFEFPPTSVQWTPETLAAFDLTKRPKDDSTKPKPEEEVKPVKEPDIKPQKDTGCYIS
UniProt Q9P287, whole entry, looked up: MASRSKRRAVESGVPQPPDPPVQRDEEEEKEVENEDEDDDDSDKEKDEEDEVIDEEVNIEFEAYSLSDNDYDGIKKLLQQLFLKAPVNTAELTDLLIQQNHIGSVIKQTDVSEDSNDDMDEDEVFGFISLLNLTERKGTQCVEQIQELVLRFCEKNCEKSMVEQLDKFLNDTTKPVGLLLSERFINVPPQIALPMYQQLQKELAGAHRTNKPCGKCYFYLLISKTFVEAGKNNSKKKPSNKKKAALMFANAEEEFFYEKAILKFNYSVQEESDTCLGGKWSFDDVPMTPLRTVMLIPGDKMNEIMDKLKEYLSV
UniProt P78537: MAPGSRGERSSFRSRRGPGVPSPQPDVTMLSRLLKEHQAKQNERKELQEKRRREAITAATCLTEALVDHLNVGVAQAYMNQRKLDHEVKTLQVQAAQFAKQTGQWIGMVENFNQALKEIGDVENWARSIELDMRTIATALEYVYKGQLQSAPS
UniProt Q9UQB8: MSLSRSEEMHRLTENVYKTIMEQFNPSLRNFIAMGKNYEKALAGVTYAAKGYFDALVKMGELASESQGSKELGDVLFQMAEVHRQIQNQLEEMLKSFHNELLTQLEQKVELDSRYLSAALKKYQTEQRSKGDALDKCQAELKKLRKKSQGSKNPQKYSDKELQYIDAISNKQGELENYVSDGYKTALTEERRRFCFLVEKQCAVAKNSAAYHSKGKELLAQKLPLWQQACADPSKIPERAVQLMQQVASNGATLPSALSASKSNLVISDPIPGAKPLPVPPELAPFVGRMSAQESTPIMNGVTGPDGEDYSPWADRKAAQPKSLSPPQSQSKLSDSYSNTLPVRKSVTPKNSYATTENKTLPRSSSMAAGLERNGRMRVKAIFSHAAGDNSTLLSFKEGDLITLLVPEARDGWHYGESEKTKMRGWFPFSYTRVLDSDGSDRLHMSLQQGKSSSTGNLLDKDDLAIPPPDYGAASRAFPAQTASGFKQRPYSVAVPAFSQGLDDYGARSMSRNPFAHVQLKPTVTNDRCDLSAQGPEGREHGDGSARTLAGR
UniProt Q8TDH9: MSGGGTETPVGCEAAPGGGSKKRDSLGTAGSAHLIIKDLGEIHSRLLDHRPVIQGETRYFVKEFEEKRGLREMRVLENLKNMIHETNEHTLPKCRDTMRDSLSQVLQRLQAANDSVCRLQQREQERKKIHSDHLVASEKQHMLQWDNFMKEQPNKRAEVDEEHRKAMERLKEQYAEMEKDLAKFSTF
UniProt Q6QNY0: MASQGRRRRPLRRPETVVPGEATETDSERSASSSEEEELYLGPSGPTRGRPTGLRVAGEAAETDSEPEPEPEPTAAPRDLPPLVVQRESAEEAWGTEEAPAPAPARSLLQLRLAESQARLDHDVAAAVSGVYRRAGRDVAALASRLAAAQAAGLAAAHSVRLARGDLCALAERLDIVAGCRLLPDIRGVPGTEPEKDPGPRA
UniProt Q9NP55: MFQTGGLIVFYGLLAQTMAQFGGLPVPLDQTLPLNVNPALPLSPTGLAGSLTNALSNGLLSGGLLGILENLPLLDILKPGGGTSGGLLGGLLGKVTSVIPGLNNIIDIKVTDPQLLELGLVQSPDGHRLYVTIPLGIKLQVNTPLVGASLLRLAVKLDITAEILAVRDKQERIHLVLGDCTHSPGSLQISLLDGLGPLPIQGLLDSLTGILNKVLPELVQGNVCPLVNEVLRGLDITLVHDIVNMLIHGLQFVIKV
UniProt Q9NSY1, whole entry, looked up: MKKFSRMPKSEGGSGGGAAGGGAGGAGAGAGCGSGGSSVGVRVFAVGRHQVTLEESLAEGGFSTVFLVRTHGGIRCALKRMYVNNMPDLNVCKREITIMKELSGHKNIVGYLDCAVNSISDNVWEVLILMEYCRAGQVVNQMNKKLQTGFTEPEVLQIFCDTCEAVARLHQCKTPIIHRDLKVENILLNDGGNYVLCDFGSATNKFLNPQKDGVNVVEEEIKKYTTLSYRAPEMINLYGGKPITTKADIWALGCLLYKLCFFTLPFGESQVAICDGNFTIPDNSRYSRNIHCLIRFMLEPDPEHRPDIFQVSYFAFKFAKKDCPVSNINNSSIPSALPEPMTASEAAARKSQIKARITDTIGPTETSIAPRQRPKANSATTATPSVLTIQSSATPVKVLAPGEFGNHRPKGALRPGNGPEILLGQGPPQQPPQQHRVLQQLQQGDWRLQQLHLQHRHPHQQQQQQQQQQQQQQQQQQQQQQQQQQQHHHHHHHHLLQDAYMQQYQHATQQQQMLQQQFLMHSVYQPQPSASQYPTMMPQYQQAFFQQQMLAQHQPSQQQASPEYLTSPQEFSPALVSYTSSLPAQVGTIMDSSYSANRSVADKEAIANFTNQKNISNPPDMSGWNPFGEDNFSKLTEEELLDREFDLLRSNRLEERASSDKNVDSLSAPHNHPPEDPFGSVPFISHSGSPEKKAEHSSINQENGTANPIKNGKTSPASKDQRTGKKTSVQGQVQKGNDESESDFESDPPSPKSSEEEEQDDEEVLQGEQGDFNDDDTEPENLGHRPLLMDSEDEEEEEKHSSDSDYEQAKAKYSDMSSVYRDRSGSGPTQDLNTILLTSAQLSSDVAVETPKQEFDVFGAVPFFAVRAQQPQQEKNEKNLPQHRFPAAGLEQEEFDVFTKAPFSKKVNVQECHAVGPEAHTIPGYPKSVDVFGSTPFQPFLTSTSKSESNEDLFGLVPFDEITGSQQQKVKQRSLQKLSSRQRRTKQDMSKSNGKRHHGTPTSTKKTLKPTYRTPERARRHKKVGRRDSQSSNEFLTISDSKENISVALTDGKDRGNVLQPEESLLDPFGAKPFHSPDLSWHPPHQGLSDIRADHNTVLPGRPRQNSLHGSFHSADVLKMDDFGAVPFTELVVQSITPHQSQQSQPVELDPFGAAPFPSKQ
UniProt Q8NBF6: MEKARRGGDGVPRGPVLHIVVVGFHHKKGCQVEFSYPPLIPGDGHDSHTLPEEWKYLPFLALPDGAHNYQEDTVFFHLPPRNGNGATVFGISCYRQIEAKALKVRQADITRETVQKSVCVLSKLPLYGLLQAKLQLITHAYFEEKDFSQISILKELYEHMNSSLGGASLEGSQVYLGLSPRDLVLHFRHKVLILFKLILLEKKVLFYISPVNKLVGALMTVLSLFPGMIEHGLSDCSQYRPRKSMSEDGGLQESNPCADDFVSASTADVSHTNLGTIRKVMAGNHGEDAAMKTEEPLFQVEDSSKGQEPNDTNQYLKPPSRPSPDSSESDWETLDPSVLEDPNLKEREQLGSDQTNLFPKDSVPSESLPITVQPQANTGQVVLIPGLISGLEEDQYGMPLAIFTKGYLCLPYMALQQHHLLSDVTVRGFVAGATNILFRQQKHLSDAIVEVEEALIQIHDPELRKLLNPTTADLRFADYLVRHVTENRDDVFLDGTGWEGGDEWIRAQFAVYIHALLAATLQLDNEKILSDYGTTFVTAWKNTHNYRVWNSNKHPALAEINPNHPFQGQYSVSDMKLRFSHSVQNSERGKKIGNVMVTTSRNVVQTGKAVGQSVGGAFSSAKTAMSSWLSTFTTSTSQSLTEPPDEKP
UniProt P11274: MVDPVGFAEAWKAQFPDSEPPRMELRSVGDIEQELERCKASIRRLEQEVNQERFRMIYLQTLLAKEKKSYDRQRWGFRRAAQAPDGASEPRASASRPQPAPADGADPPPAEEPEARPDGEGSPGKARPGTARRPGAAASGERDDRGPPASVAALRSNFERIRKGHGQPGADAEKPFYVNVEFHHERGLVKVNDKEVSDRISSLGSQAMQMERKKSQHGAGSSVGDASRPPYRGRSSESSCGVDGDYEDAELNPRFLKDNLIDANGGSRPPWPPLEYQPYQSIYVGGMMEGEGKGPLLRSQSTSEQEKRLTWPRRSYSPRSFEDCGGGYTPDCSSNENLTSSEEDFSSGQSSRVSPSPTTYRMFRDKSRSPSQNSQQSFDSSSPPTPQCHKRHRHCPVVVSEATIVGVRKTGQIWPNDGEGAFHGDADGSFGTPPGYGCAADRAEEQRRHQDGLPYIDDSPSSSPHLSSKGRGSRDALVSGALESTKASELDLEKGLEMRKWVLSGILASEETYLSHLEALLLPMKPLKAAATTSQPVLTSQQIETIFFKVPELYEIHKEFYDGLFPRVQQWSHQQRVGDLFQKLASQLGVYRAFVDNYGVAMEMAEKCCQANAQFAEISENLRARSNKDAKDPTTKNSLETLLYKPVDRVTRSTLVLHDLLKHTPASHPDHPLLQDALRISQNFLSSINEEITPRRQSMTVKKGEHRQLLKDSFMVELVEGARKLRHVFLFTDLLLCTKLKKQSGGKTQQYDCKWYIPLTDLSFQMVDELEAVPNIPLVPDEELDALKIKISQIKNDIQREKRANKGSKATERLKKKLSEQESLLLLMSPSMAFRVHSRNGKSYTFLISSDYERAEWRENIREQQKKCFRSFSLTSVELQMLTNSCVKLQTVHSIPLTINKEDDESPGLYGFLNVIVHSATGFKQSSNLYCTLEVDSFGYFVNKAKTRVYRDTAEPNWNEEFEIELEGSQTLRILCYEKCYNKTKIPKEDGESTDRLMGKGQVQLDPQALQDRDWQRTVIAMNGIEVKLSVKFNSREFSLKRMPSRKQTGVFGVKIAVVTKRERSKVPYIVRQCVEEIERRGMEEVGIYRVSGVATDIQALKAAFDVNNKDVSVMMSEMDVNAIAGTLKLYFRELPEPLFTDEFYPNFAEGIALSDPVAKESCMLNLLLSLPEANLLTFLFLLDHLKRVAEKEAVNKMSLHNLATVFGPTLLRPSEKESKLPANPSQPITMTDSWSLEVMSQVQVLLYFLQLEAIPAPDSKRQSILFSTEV

Experiments:
Assay in all cases: log2 fold change, soluble protein after heating vs DMSO (PISA); higher = thermal stabilisation; K562 cells, 10 uM, 30 min; active = over 0.2 and 3.5 SD of the protein, either way, in both replicates (recomputed)
[1] = compound: COC1=CC=C(C=C1)CN2C=CC3=C2C=C(C=C3)C(=O)NO
Outline: (§1)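 K562 cells at 2×10^6 cells/mL were exposed to 10 μM compound for 30 min, then aliquots were heated for 3 min across 48°C-58°C, pooled, and extracted in PBS containing 0.5% NP-40 at 4°C. The supernatant after 21,000xg for 90 min was taken as soluble protein and measured by TMTpro 16plex LC-MS/MS with channel sums equalised. Thermal stability is reported relative to control samples, with values from duplicates. Fold changes are given on a log2 scale.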

filanesib = compound: CON(C)C(=O)N1N=C(c2cc(F)ccc2F)S[C@@]1(CCCN)c1ccccc1 [filanesib]
Outline: as §1

zotarolimus = compound: CO[C@H]1C[C@@H]2CC[C@@H](C)[C@@](O)(O2)C(=O)C(=O)N2CCCC[C@H]2C(=O)O[C@H]([C@H](C)C[C@@H]2CC[C@H](n3cnnn3)[C@H](OC)C2)CC(=O)[C@H](C)/C=C(\C)[C@@H](O)[C@@H](OC)C(=O)[C@H](C)C[C@H](C)/C=C/C=C/C=C/1C [zotarolimus]
Outline: as §1

idasanutlin = compound: COc1cc(C(=O)O)ccc1NC(=O)[C@@H]1N[C@@H](CC(C)(C)C)[C@](C#N)(c2ccc(Cl)cc2F)[C@H]1c1cccc(Cl)c1F [idasanutlin]
Outline: as §1

alisertib = compound: COc1cc(Nc2ncc3c(n2)-c2ccc(Cl)cc2C(c2c(F)cccc2OC)=NC3)ccc1C(=O)O [alisertib]
Outline: as §1

[2] = compound: COc1cc2nc(-c3cc(F)ccc3O)nc(N[C@@H]3CNC[C@H]3C(C)(C)O)c2cc1OC
Outline: as §1

gefitinib = compound: COc1cc2ncnc(Nc3ccc(F)c(Cl)c3)c2cc1OCCCN1CCOCC1 [gefitinib]
Outline: as §1

[3] = compound: COc1cccc2cc(-c3nc([C@H]4CC[C@H](C(=O)O)CC4)n4ncnc(N)c34)[nH]c12
Outline: as §1

lapatinib = compound: CS(=O)(=O)CCNCc1ccc(-c2ccc3ncnc(Nc4ccc(OCc5cccc(F)c5)c(Cl)c4)c3c2)o1 [lapatinib]
Outline: as §1

pictilisib = compound: CS(=O)(=O)N1CCN(Cc2cc3nc(-c4cccc5[nH]ncc45)nc(N4CCOCC4)c3s2)CC1 [pictilisib]
Outline: as §1

Target | log2 fold change [1] | log2 fold change (filanesib) | log2 fold change (zotarolimus) | log2 fold change (idasanutlin) | log2 fold change (alisertib) | log2 fold change [2] | log2 fold change (gefitinib) | log2 fold change [3] | log2 fold change (lapatinib) | log2 fold change (pictilisib)
BIRC2 (UniProt Q13490) | inactive: -0.01 | inactive: 0.01 | inactive: 0.011 | inactive: -0.007 | inactive: -0.093 | inactive: 0.139 | inactive: 0.029 | inactive: 0.097 | inactive: -0.106 | inactive: 0.031
BAX isoform 2 (UniProt Q07812) | inactive: -0.031 | inactive: 0.01 | inactive: -0.007 | inactive: 0.014 | inactive: -0.055 | inactive: -0.03 | inactive: 0.012 | inactive: 0.053 | inactive: 0 | inactive: -0.043
BLOC1S4 (UniProt Q9NUP1) | inactive: 0.007 | inactive: -0.003 | inactive: 0.017 | inactive: -0.056 | inactive: 0.017 | inactive: 0.03 | inactive: 0.04 | inactive: 0.108 | inactive: -0.001 | inactive: -0.033
AUP1 (UniProt Q9Y679) | inactive: -0.069 | active: -0.269 | inactive: -0.014 | inactive: -0.022 | inactive: -0.013 | inactive: -0.163 | inactive: -0.034 | inactive: 0.022 | inactive: -0.007 | inactive: -0.059
B4GALNT1 (UniProt Q00973) | inactive: 0.023 | inactive: 0.092 | inactive: 0.081 | inactive: 0.093 | inactive: -0.063 | inactive: -0.045 | inactive: 0.119 | inactive: 0.112 | inactive: 0.097 | inactive: -0.045
BNIP1 (UniProt Q12981) | inactive: 0 | inactive: -0.009 | inactive: 0.008 | inactive: -0.009 | inactive: -0.026 | inactive: -0.084 | inactive: 0.044 | inactive: 0.01 | inactive: -0.005 | inactive: 0.047
BROX (UniProt Q5VW32) | inactive: 0.078 | inactive: -0.036 | inactive: 0.054 | inactive: -0.067 | inactive: 0.008 | inactive: 0.106 | inactive: 0.012 | inactive: -0.108 | inactive: -0.025 | inactive: 0.026
ATXN2L (UniProt Q8WWM7) | inactive: -0.026 | inactive: -0.009 | inactive: -0.041 | inactive: 0.033 | inactive: -0.014 | inactive: -0.056 | inactive: -0.031 | inactive: -0.01 | inactive: 0.061 | inactive: -0.007
BCCIP (UniProt Q9P287) | inactive: -0.022 | inactive: 0.06 | inactive: 0.031 | inactive: -0.048 | inactive: -0.086 | inactive: 0.033 | inactive: 0.036 | inactive: -0.024 | inactive: 0.01 | inactive: -0.024
BLVRB (UniProt P30043) | inactive: 0.113 | inactive: -0.073 | inactive: 0.024 | inactive: -0.045 | inactive: -0.07 | inactive: 0.045 | inactive: 0.061 | inactive: 0.015 | inactive: 0.071 | inactive: 0.037
BLOC1S1 (UniProt P78537) | inactive: -0.14 | inactive: -0.072 | inactive: 0.021 | inactive: -0.093 | inactive: -0.066 | inactive: -0.044 | inactive: -0.009 | inactive: 0.007 | inactive: -0.037 | inactive: -0.014
ATXN10 (UniProt Q9UBB4) | inactive: 0.034 | inactive: -0.064 | inactive: 0.027 | inactive: -0.094 | inactive: -0.084 | inactive: 0.174 | inactive: -0.006 | inactive: 0.021 | inactive: 0.013 | inactive: -0.035
BAIAP2 (UniProt Q9UQB8) | inactive: 0.014 | inactive: -0.029 | inactive: -0.016 | inactive: -0.003 | inactive: 0.008 | inactive: -0.131 | inactive: -0.026 | inactive: -0.024 | inactive: 0.036 | inactive: 0
BLOC1S5 (UniProt Q8TDH9) | inactive: -0.018 | inactive: -0.068 | inactive: -0.059 | inactive: 0.005 | inactive: -0.033 | inactive: 0.052 | inactive: -0.025 | inactive: 0.064 | inactive: 0.017 | inactive: 0.041
BCAT1 (UniProt P54687) | inactive: 0.023 | inactive: -0.008 | inactive: 0.003 | inactive: 0.005 | inactive: -0.029 | inactive: 0.018 | inactive: -0.017 | inactive: 0.044 | inactive: -0.02 | inactive: 0.001
BIRC6 (UniProt Q9NR09) | inactive: 0 | inactive: 0.024 | inactive: 0.02 | inactive: -0.065 | inactive: -0.061 | inactive: 0.011 | inactive: -0.024 | inactive: -0.028 | inactive: 0.059 | inactive: 0.025
BCKDHA (UniProt P12694) | inactive: -0.19 | inactive: 0.003 | inactive: -0.074 | inactive: -0.105 | inactive: -0.033 | inactive: 0.005 | inactive: 0.112 | inactive: 0.012 | inactive: 0.054 | inactive: 0.067
BCKDK (UniProt O14874) | inactive: -0.029 | inactive: 0.04 | inactive: -0.025 | inactive: 0.022 | inactive: -0.083 | inactive: 0 | inactive: 0.018 | inactive: 0.04 | inactive: 0.002 | inactive: 0.198
BAG5 isoform 2 (UniProt Q9UL15) | inactive: -0.002 | inactive: 0.045 | inactive: 0.013 | inactive: -0.027 | inactive: 0.028 | inactive: 0.113 | inactive: -0.132 | inactive: -0.007 | inactive: -0.057 | inactive: 0.019
BRD8 isoform 2 (UniProt Q9H0E9) | inactive: -0.201 | inactive: 0.042 | inactive: 0.027 | inactive: -0.027 | – | inactive: -0.113 | – | – | inactive: 0.019 | inactive: 0.06
BCL9 (UniProt O00512) | inactive: -0.054 | inactive: 0.003 | inactive: -0.153 | inactive: 0.006 | – | inactive: -0.048 | – | – | inactive: 0.038 | inactive: 0.084
BLOC1S3 (UniProt Q6QNY0) | inactive: -0.013 | inactive: -0.066 | inactive: -0.014 | inactive: -0.149 | inactive: 0.005 | inactive: -0.018 | inactive: 0.048 | inactive: 0.058 | inactive: -0.007 | inactive: 0.126
BRAT1 (UniProt Q6PJG6) | inactive: -0.085 | inactive: -0.013 | inactive: 0.13 | inactive: -0.062 | inactive: -0.071 | inactive: 0.01 | inactive: 0.037 | inactive: -0.022 | inactive: -0.052 | inactive: -0.005
BPIFA1 (UniProt Q9NP55) | inactive: 1.49 | inactive: -0.213 | – | – | inactive: 1.47 | – | inactive: 1.39 | inactive: -0.055 | – | –
BMP2K (UniProt Q9NSY1) | inactive: 0.032 | inactive: -0.019 | inactive: 0.029 | inactive: -0.092 | inactive: 0 | inactive: 0.055 | inactive: 0.024 | inactive: 0.111 | inactive: 0.01 | inactive: 0.102
AVL9 (UniProt Q8NBF6) | inactive: 0.016 | inactive: -0.108 | inactive: 0.05 | inactive: -0.068 | inactive: -0.047 | inactive: -0.085 | inactive: -0.055 | inactive: 0.065 | inactive: 0.016 | inactive: -0.033
BCR (UniProt P11274) | inactive: -0.092 | inactive: 0.644 | inactive: 0.18 | – | inactive: -0.176 | inactive: -0.004 | – | inactive: -0.172 | inactive: -0.012 | inactive: -0.466
BRAF (UniProt P15056) | inactive: -0.031 | inactive: -0.05 | inactive: -0.004 | inactive: -0.047 | inactive: 0.007 | inactive: -0.076 | inactive: 0.012 | inactive: 0.015 | – | inactive: -0.061
ATXN7L3 isoform 2 (UniProt Q14CW9) | inactive: -0.158 | inactive: -0.02 | – | inactive: 0.193 | inactive: -0.191 | – | inactive: 0.052 | inactive: 0.035 | – | –

Two entries from above in another layout:
Target	log2 fold change [1]	log2 fold change (filanesib)	log2 fold change (zotarolimus)	log2 fold change (idasanutlin)	log2 fold change (alisertib)	log2 fold change [2]	log2 fold change (gefitinib)	log2 fold change [3]	log2 fold change (lapatinib)	log2 fold change (pictilisib)
ATXN2L (UniProt Q8WWM7)	inactive: -0.026	inactive: -0.009	inactive: -0.041	inactive: 0.033	inactive: -0.014	inactive: -0.056	inactive: -0.031	inactive: -0.01	inactive: 0.061	inactive: -0.007
BCCIP (UniProt Q9P287)	inactive: -0.022	inactive: 0.06	inactive: 0.031	inactive: -0.048	inactive: -0.086	inactive: 0.033	inactive: 0.036	inactive: -0.024	inactive: 0.01	inactive: -0.024
